We go through 40 compounds from PubChem BioAssay AID2685 (National Center for Advancing Translational Sciences (NCATS), 2010).

This is one part of the list. The main result of the screen is listed elsewhere. These columns were measured beside it and carry no call. The list favours compounds with an active or inconclusive main result. Potencies come from curve fits of mixed quality, noted in brackets.

This test can be described thus: qHTS Assay for Lipid Storage Modulators in Drosophila S3 Cells.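 On cell number change: cells counted by Cell Tracker Red CMTPX staining in the red channel.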 Particulars: BODIPY lipid droplet fluorescence, 18-24 h; for cell number change: measured here: cell count max response, cells fed with added oleic acid. The gist of the method: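 Drosophila S3 cells loaded with oleic acid (400 uM, as added) and compounds at several concentrations; lipid droplets imaged by 488-nm laser-scanning cytometry, 500–530 nm intensity and object ratio to cell channel. Percent activity normalized to 20 uM Triacsin C.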
For orientation: qHTS replaces the single test concentration by a dilution series.

Setting [1] is: measured here: cell number channel AC50, cells fed with added oleic acid.
[2] abbreviates: measured here: lipid fluorescence (Fed channel) AC50, cells fed with added oleic acid.

`Cc1c(Cl)cccc1NC(=O)CNC(=O)CCS(=O)(=O)c1ccc(F)cc1`: the cell number change was -19.2%. As usually defined, the AC50 is the concentration giving half of the maximal activity seen. High values mean weaker potency, low ones greater potency. In the case of `O=C(O)C1CCN(C(=O)c2ccc(Cl)cc2)CC1`, the cell number change is -40.2%. Also, the AC50 under setting [1] was 820 nM [falling, full curve]. Under setting [2], the concentration at half-maximal activity (AC50) was 11600 nM [falling, partial curve]. In the case of `C=CCOC(=O)CCCC(=O)NC1CCCCC1`, the cell number change was -106%. Also, under setting [1], the AC50 was 18400 nM [falling, single point]. In the case of `COc1cc(/C=N/n2nnnc2N)ccc1OC(C)C`, the cell number change came out at 6.31%. On to `COC(=O)C1=NN(C(C)=O)C2(CC(=O)N(c3cc(C)cc(C)c3)C2=O)C1` (centres undefined), for which the cell number change was -2.01%. Under setting [2], the AC50 is 29100 nM [rising, single point].

Regarding `CCOC(=O)[C@@H]1[C@H]2COc3ccc(Br)cc3[C@H]2N2C(=O)N(c3ccc(F)cc3)C(=O)[C@]12C`, the cell number change worked out at 51.5%. The AC50 under setting [1] is 73.1 nM [rising, full curve, poor fit]. The AC50 under setting [2] was 10300 nM [rising, partial curve]. For the compound `CCOC(=O)c1cc2c(C)n(-c3ccc(OCC)cc3)c(C)c2ccc1=O`, the cell number change was -12.3%. Besides, the AC50 under setting [2] is 580 nM [falling, full curve, poor fit].

`O=C(CCN1C(=O)c2ccccc2S1(=O)=O)Nc1ccc(Cl)cc1`: the cell number change is -3.88%. Besides, the AC50 under setting [1] was 820 nM [rising, single point]. Consider `Cc1cccc(C)c1N(CC(=O)N1CCCC1)S(C)(=O)=O`, for which the cell number change was determined as 12.1%. In addition, the AC50 under setting [2] was 6510 nM [rising, single point]. `O=S(=O)(c1cc(F)ccc1F)N1CCC2(CC1)OCCN2S(=O)(=O)c1cccs1`: the cell number change was determined as 7.45%. The AC50 under setting [2] was 164 nM [falling, full curve, poor fit]. With `S=C1Cc2ccccc2C(c2ccc(Cl)cc2)N1` (centres undefined), the cell number change is 19.2%. In addition, the AC50 under setting [2] is 4.61 nM [rising, full curve, poor fit].

`C[C@H](NC(=O)C(c1ccccc1)c1ccccc1)c1ccccc1`: the cell number change worked out at 1.42%. Moreover, the AC50 under setting [1] was 6510 nM [rising, single point]. Moreover, the AC50 under setting [2] was 3260 nM [rising, single point].

As for `Nc1nnc(Cc2ccc(Cl)c(Cl)c2)s1`, the half-maximal activity concentration (AC50) under setting [2] was 5800 nM [falling, partial curve]. Regarding `COc1ccc(CNC(=O)CCc2c(C)nc3cc(-c4ccccc4OC)nn3c2C)cc1`, the cell number change worked out at 2.39%. Still for that read-out and setting: in the case of `Cc1cccc(-c2noc(CN(C(=O)c3ccc4c(c3)OCO4)C(C)C)n2)c1` it was -0.338%. Consider `Cc1cc(C)n(-c2ccc(C(=O)Nc3cccnc3Cl)cc2)n1`, for which the AC50 under setting [1] was 517 nM [rising, single point]. With `CCCCn1nnnc1NCc1ccc(OC)c(OC)c1OC`, the cell number change is -17.4%.

`CCOC(=O)CNC(=O)c1cn(C)c(=O)c2cc(OC)c(OC)cc12`: the cell number change was -14.7%.

On to `O=C1c2ccccc2C(=O)c2c1cccc2N1CCCC1`, for which the cell number change turned out to be 12.8%. Moreover, the AC50 under setting [1] is 6510 nM [rising, partial curve, poor fit].

For the compound `CC(SCc1ccccc1)C(=O)N/N=C/c1ccc(OCC(=O)NCc2ccco2)cc1` (centres undefined), the cell number change was found to be 19.1%. Under setting [2], the AC50 was 32600 nM [falling, single point]. In the case of `CNc1cnn(-c2ccc(C)cc2)c(=O)c1Cl`, the cell number change is -10.6%. For the same compound, the AC50 under setting [1] was 6510 nM [falling, partial curve, poor fit]. With `COc1ccc2c(c1OC)C(=O)N1C2SC(C)(C)[C@H]1C(=O)NCCCOC(C)C` (some centres undefined), the cell number change is 11.1%. For the same compound, the AC50 under setting [2] is 820 nM [rising, full curve, poor fit]. In the case of `Cc1ccc(-c2ccc(CCC(=O)O)n2-c2cccc(O)c2)cc1`, the cell number change was 7.05%. Moreover, under setting [2], the AC50 was 23.1 nM [falling, full curve, poor fit].

On to `CN1CCN(CCCNC(=O)c2ccc(/C=C3\Oc4ccccc4N(Cc4ccccc4F)C3=O)cc2)CC1`, for which the cell number change was 0.895%. As for `O=C(COC(=O)c1cc([N+](=O)[O-])ccc1N1CCOCC1)c1ccccc1Cl`, the cell number change is -23.1%. In addition, under setting [2], the AC50 is 29100 nM [falling, single point].

On to `O=c1[nH]nc(Cc2ccc3ccccc3n2)c2ccccc12`, for which the cell number change is -35.8%. In the case of `CC1CCN(c2ccc3nnc(CCC(=O)NCC(C)c4ccccc4)n3n2)CC1` (centres undefined), the cell number change stood at 16.8%. The AC50 under setting [2] was 29100 nM [falling, single point].

Consider `O=C(CNC(=S)NC(=O)c1ccc(Cl)cc1)c1ccccc1`, for which the cell number change was -12.8%. Moreover, the AC50 under setting [2] is 461 nM [rising, full curve]. On to `COc1ccc(-c2cc3c(=O)n(CC(=O)NCc4cccnc4)ncn3n2)cc1`, for which the cell number change was 24.8%. The AC50 under setting [2] was 130 nM [falling, full curve, poor fit]. For the compound `CCOC(=O)C1CCN(C(=O)CC2C(=O)N(Cc3ccccc3)C(C)c3nc4ccccc4n32)CC1` (centres undefined), the cell number change is -10%. As to `CC(C)NOC(=O)c1ccc(Cl)cc1`, the cell number change was -30.8%. For the same compound, the AC50 under setting [1] is 1460 nM [falling, partial curve]. The AC50 under setting [2] is 82 nM [falling, full curve, poor fit]. Regarding `CCCC(C(=O)OCC)P(=O)(c1ccccc1)c1ccccc1` (centres undefined), the cell number change turned out to be 1.04%. Also, the AC50 under setting [1] was 1300 nM [falling, partial curve, poor fit]. The AC50 under setting [2] is 1160 nM [falling, full curve].

With `Cc1c(C(=O)NCCN2CCOCC2)oc2ccccc12`, under setting [1], the AC50 is 3660 nM [rising, single point].

`O=C(CSc1nnc(-c2cccnc2)n1-c1ccccc1)Nc1ccc2c(c1)OCO2`: the cell number change was determined as 4.18%. Moreover, under setting [2], the AC50 was 920 nM [rising, full curve, poor fit]. On to `Cc1cccc(C(=O)N[C@H](C(=O)Nc2ncc(C)s2)C(C)C)c1`, for which the AC50 reads like this: under setting [1], 517 nM [rising, partial curve]; under setting [2], 1640 nM [rising, single point].

Take `Clc1cc(Cl)cc(C2=NCCC(c3ccccc3)O2)c1` (centres undefined): the cell number change worked out at 35.8%. For the same compound, the AC50 under setting [1] is 18400 nM [rising, single point]. Under setting [2], the AC50 was 16400 nM [rising, partial curve]. On to `NS(=O)(=O)c1ccc(N2C(=O)C3CC=CCC3C2=O)cc1` (centres undefined), for which the cell number change is -27%. The AC50 under setting [2] is 130 nM [falling, full curve, poor fit]. With `O=C(NCc1cn(-c2ccccc2)nc1-c1ccccc1)c1ccc([N+](=O)[O-])cc1`, the cell number change was -28.2%. Further, the half-maximal activity concentration (AC50) under setting [2] is 20600 nM [falling, single point].

For `Cc1[nH]n(-c2ccccc2)c(=O)c1/C=N/N(c1ccccc1)c1ccccc1`, the cell number change was -24.3%. Further, the AC50 under setting [2] is 29100 nM [falling, single point].

As to `Cc1cc(C(=O)OCC(=O)c2cccs2)c2ccccc2n1`, the cell number change worked out at 2.24%. Moreover, under setting [2], the AC50 was 146 nM [falling, full curve, poor fit].
